Percent effect of library compounds

By UniProt entry, the sequences of proteins in these tests, tags left out. Residues count along the entry.
UniProt Q4DA54, 1-478: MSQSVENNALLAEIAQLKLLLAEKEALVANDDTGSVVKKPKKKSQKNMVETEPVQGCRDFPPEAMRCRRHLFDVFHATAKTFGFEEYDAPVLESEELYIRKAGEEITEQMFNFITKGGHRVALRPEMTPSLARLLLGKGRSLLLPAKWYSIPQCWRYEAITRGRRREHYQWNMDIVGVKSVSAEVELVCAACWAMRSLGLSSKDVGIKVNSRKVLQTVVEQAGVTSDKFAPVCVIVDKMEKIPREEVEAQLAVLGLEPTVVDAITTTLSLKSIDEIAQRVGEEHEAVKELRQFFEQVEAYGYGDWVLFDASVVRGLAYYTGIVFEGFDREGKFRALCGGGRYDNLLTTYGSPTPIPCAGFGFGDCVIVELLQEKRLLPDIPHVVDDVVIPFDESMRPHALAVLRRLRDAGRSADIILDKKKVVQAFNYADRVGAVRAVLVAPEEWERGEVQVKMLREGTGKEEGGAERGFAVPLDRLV
UniProt I6X8D2, whole entry: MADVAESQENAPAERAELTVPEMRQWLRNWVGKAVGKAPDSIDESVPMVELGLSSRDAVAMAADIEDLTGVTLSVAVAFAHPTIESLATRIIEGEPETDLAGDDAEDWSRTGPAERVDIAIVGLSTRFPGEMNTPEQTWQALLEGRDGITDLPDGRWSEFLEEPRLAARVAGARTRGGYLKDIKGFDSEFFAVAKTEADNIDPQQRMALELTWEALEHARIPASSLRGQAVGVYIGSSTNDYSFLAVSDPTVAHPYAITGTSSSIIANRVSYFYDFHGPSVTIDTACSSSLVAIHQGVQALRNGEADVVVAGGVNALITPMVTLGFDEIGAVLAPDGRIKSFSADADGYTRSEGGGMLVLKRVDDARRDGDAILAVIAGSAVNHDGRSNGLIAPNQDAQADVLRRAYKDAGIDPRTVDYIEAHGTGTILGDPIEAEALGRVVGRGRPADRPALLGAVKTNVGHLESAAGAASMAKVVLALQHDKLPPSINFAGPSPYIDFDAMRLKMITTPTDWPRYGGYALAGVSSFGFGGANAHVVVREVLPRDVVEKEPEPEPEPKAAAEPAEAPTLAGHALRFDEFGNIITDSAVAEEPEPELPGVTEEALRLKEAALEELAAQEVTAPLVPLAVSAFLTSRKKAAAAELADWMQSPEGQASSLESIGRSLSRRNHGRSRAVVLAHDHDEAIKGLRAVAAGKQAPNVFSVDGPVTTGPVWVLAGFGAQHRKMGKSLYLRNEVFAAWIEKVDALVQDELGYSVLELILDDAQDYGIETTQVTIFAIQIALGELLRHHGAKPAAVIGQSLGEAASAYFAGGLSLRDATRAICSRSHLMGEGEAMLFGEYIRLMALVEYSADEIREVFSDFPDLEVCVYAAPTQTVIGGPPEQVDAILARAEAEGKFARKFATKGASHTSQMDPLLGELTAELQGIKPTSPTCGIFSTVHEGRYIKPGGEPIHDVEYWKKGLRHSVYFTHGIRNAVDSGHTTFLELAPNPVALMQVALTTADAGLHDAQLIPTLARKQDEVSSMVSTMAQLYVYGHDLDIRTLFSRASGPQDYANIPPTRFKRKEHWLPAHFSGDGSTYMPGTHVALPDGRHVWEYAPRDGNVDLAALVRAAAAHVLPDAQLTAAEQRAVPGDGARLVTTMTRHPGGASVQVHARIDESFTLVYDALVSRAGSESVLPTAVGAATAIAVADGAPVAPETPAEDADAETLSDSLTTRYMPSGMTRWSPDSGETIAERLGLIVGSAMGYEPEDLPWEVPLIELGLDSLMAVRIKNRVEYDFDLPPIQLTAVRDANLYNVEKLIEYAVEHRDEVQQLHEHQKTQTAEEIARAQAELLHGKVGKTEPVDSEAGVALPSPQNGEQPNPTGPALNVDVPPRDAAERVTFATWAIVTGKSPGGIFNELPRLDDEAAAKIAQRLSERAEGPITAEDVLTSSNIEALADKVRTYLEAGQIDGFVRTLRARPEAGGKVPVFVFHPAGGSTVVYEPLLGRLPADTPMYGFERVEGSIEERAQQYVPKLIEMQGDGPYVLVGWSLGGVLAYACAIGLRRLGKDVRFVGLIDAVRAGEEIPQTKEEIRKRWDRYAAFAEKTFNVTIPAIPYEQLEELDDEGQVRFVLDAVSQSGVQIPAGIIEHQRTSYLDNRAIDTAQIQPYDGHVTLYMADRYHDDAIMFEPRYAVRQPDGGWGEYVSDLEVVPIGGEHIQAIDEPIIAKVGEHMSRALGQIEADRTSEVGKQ
UniProt P9WNZ1, whole entry: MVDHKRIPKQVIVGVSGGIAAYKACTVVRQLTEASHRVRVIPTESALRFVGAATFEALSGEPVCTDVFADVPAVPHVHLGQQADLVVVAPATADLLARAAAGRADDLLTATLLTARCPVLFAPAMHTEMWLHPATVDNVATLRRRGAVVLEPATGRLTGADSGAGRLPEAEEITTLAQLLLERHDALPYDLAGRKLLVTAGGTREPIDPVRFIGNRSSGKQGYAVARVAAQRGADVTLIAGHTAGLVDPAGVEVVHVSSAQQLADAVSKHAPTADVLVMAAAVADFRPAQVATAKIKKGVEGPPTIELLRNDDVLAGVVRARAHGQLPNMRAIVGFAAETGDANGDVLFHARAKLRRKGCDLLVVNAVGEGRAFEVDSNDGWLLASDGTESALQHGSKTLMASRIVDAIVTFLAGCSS
UniProt Q8IDJ8, 1-583: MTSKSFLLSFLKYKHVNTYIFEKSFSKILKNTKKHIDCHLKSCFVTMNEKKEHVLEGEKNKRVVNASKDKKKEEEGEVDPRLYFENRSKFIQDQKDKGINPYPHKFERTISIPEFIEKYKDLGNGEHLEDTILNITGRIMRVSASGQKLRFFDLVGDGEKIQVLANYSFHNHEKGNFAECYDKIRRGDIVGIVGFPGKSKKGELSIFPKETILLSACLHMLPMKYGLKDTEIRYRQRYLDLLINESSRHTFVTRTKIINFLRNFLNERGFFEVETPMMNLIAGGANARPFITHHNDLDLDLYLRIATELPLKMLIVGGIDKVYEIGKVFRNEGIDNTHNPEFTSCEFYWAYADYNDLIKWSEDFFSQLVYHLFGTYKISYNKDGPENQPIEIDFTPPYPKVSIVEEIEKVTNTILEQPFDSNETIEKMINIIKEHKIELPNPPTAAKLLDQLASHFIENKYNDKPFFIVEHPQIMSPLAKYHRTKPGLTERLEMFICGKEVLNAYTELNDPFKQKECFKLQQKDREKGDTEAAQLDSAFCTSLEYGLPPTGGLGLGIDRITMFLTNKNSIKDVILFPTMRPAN
UniProt P9WFT3, whole entry: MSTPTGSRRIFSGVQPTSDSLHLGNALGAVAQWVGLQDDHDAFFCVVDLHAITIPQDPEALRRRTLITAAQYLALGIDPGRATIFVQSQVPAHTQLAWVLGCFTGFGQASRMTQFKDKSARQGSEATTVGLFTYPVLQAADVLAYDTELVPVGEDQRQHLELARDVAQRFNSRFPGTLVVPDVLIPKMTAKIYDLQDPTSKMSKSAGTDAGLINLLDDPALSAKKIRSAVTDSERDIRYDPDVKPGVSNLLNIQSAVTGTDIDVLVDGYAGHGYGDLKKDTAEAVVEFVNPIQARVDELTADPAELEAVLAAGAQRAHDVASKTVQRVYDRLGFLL

A: 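Histidine-tRNA ligase, Trypanosoma cruzi CL Brener (UniProt Q4DA54). Enzyme assay of histidyl-tRNA synthetase; the read-out is not stated. Tested at 30 µM. The record gives no direction; compounds that gave an IC50 in retests scored well above the rest, so higher reads as stronger inhibition. Of about 69,000 compounds tested this way, about 31 (0.045%) reached 50% or more in at least one test.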
B: 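Polyketide synthase Pks13, Mycobacterium tuberculosis (UniProt I6X8D2). Enzyme assay of the thioesterase domain of polyketide synthase 13; the read-out is not stated. Tested at 30 µM. The record gives no direction; the compounds picked for IC50 retests had high values, so higher reads as stronger inhibition. Size under these conditions: about 67,000 compounds, about 300 of them at 50% or above in at least one test.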
C: 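Enzyme assay of CoaBC with a phosphate dye (Biomol Green) read at 650 nm. Target: Coenzyme A biosynthesis protein CoaBC, Mycobacterium tuberculosis (UniProt P9WNZ1). Tested at 30 µM. Higher reads as stronger inhibition, judged from the few compounds that gave an IC50. Most strong results did not repeat in a second test. Of about 67,000 compounds tested this way, about 40 (0.06%) reached 50% or more in at least one test.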
D: 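Cell assay of Leishmania donovani living inside macrophages; the read-out is not stated. Tested at 30 µM. Direction is inferred from retests: higher values go with stronger inhibition. Of about 69,000 compounds tested this way, about 1,000 (1.5%) reached 50% or more in at least one test.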
E: 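Enzyme assay of the cytosolic lysyl-tRNA synthetase in 384-well plates, read by luminescence. Target: Lysine-tRNA ligase, Plasmodium falciparum 3D7 (UniProt Q8IDJ8). Concentration: 30 µM. Higher reads as stronger inhibition, judged from the few compounds that gave an IC50. About 69,000 compounds were tested under these conditions; 0.071% (about 49) showed 50% or more at least once.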
F: 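Tryptophan-tRNA ligase, Mycobacterium tuberculosis (UniProt P9WFT3). Enzyme assay of tryptophanyl-tRNA synthetase; the read-out is not stated. Compounds at 10 µM. Direction is not recorded; retested compounds ran higher, which suggests that high means inhibition. About 65,000 compounds were tested under these conditions; 0.098% (about 64) showed 50% or more at least once.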

Values are the deposited “Percent Effect”, in %.
How 0% and 100% were set is not recorded. Most values in the screen are low, and negative values occur.
This is an unselected part of the compounds tested.
Two or more numbers in one place are separate tests of the same structure; such repeats can differ widely.
A dash means the value is not listed here; it may have been measured.

| SMILES | A | B | C | D | E | F |
|---|---|---|---|---|---|---|
| `c1ccc(-c2nn3c(CN4CCOCC4)nnc3s2)nc1` | 3.478% | -6.517% | -9.7% | 48.89% | 6.441% | -2.85% |
| `CCC(C)N1CCC2(CC1)CN(c1cncnc1)C(=O)CO2.O=C(O)C(F)(F)F` (stereo not drawn) | - | - | - | 22.4% | - | - |
| `Cc1ccnc(NC(=O)c2c(C)oc(C)c2C)c1` | -5.419% | -11.35% | -4.516% | -14.02% | 5.055% | -0.2742% |
| `CNC(=O)c1cn[nH]c1C1CCN(Cc2ccccc2F)C1` (stereo not drawn) | 4.563% | 1.59% | -0.1236% | 13.96% | 3.297% | 1.569% |
| `CCC(CC)C(=O)NCCC(=O)N1CCN(c2ccccn2)CC1` | 8.543% | -5.685% | 0.6017% | -9.485% | 1.035% | -1.908% |
| `CN(C)c1ccccc1C(=O)N1CCCC(c2ccc(C(=O)O)cc2)C1` (stereo not drawn) | 9.453% | 24.88% | 2.133% | -17.19% | -0.9874% | 2.601% |
| `CN(C)CCN1CCO[C@H]2CCN(C(=O)c3cccs3)CC[C@@H]21` | 4.908% | 0.4696% | - | - | 3.541% | 9.205% |
| `Cn1cc(CN2CCC3(CC2)NC(=O)CC3c2ccncc2)cn1.O=C(O)C(F)(F)F.O=C(O)C(F)(F)F` (stereo not drawn) | - | - | - | 21.65% | - | - |
| `Cc1nc(NCC2CCOCC2)cc(C2CCN2S(C)(=O)=O)n1` (stereo not drawn) | 2.682% | -7.598% | -3.11% | 29.54% | -0.07118% | -3.516% |
| `CCc1nnc2n1CCN(C(C(N)=O)c1ccc(F)cc1)C2` (stereo not drawn) | 8.808% | 35.24% | -25.78% | -3.69% | 3.136% | 0.2427% |
| `CC(C)C1SCC(=O)Nc2c1c(O)nn2C1CCCCC1` (stereo not drawn) | 2.439% | 3.402% | 4.557% | -24.51% & 12.64% | 5.9% | -3.204% |
| `CCCc1nc(N2Cc3cnn(Cc4ccc(F)cc4)c3C2)no1` | 8.714% | -20.75% | -2.232% | -16.56% | 9.41% | 3.197% |
| `O=S(=O)(NCCc1cn2ccccc2n1)N1CCOCC1` | 6.25% | -7.101% | 7.421% | 17.41% | 8.925% | 0.5442% |
| `c1ccc2c(N3CCCCC3Cn3cncn3)ncnc2c1` (stereo not drawn) | 3.734% | -1.631% | 6.25% | 19.01% | 0.7564% | -3.197% |
| `O=C(NCc1nnc2n1CCCC2)c1cn(-c2ccccc2)nn1` | 5.579% | 1.439% | 3.947% | -25.85% | 2.713% | -1.22% |
| `Cc1nnc(CN(C)CCCOc2cccc(Cl)c2)o1` | 2.521% | -2.448% | 6.855% | 22.84% | 6.335% | -0.3632% |
| `CC(C)(C)CCNc1nccc(-c2c[nH][nH]c2=O)n1` | 13.56% | 22.76% | 4.217% | 15.52% & -13.29% | 5.295% | - |
| `Cc1ccc(CN2C[C@H]3C[C@H](C(=O)NCc4cccnc4)[C@@H](C2)O3)cc1` | 3.681% | 13.75% | - | - | -2.723% | -0.8721% |
| `Cc1ccc(N2CC3(COCCN(Cc4cccnc4)C3)OCC2=O)s1` (stereo not drawn) | 5.435% | -15.3% | -2.408% | - | -7.275% | 13.34% |
| `Cc1cnc(NC(=O)c2cccc(CN(C)Cc3ncccc3C)c2)s1` | -2.041% | -16.19% | 4.104% | 10.37% | -1.23% | -14.44% |
| `CCn1cc(NC(=O)NCCc2ccc3c(c2)OCCO3)cn1` | 2.564% | -17.99% | -9.92% | 26.25% | 0.0134% | 3.237% |
| `O=C1CC[C@H]2CN(c3ncc(F)cn3)CC[C@H]2N1CCc1ccccn1` | 3.247% | -6.861% | 0.1209% | - | 3.897% | -2.755% |
| `COc1cccc2[nH]cc(CCNC(=O)N3CCC[C@H]3CO)c12` | 5.051% | 9.485% | -0.9724% | -13.08% | 0.1494% | 5.811% |
| `COc1cc(C(=O)Nc2cn[nH]c2)ccc1C` | 5.325% | -0.4888% | 2.915% | 16.33% | 1.827% | -8.349% |
| `Cc1nc(N2CCC(C)CC2)ncc1-c1cc(O)nc(N2CCCC2)n1` | 3.478% | 2.918% | -6.236% | -14.69% | 4.801% | -0.2591% |
| `CCNC(=O)N1CCCC(c2noc(CC)n2)C1` (stereo not drawn) | 4.151% | -19.72% | -9.231% | 21.95% | 9.433% | 0.7037% |
| `COc1ccc(C(=O)C2CCCN(Cc3cnn(C)c3C)C2)c(OC)c1` (stereo not drawn) | 0% | -37.8% | 4.342% | -3.504% | 2.225% | 2.101% |
| `Cc1nc(NS(=O)(=O)c2cccc(F)c2C)no1` | -5.699% | -11.69% | 4.427% | 46.53% | 6.919% | 1.699% |
| `O=c1cc(CN2CCCC2)nc2n1CCCN(Cc1ccco1)C2` | 4.598% | -24.82% | 5.943% | -0.1525% | -1.177% | -3.843% |
| `COc1nc2c(cc1C(=O)N(C)Cc1n[nH]c3c1CCCC3)CCC2` | 6.329% | -3.35% | 5.529% | 11.19% | -0.8077% | 2.968% |
| `O=C(c1scc2c1OCCO2)N1CCOC(CCc2ccccc2)C1` (stereo not drawn) | 6.061% | -10.21% | -1.535% | -2.268% | 0.4332% | 0.315% |
| `CN(Cc1nnc(C2CC2)n1C)C1CCN(Cc2ccncc2)C1` (stereo not drawn) | 4.07% | -0.8632% | 26.54% & 5.67% | 35.36% | 1.042% | -3.899% |
| `O=C(OC1CCC1)c1ncccc1OCC(F)(F)F` | 10% | -23.96% | -8.824% | 10.04% | 2.726% | -2.401% |
| `CC(C)Cc1ncc2c(n1)CN(c1nccc(NC(C)C)n1)C2` | 0% | -45.33% | 3.931% | 36.43% | 3.065% | 2.179% |
| `O=C1CC(c2ccc3c(c2)OCO3)c2cn[nH]c2N1` (stereo not drawn) | 5.325% | -7.307% | 2.895% | 14.11% | 7.656% | -7.174% |
| `CCS(=O)(=O)N1Cc2nccn2CC(Cn2cccn2)C1` (stereo not drawn) | 5.556% | -10.98% | 1.951% | 9.896% | 3.332% | - |
| `Cc1cnn(CCNCc2ccccc2OCc2cccnc2)c1` | 5.639% | -17.87% | 1.828% | 13.22% | 3.871% | -3.801% |

Repeated from the top, 2 entries:

{"smiles": "c1ccc(-c2nn3c(CN4CCOCC4)nnc3s2)nc1", "A": 3.478, "B": -6.517, "C": -9.7, "D": 48.89, "E": 6.441, "F": -2.85}
{"smiles": "CCC(C)N1CCC2(CC1)CN(c1cncnc1)C(=O)CO2.O=C(O)C(F)(F)F", "stereo": "stereo not drawn", "D": 22.4}

The values are deposited in ChEMBL (CHEMBL3988442, “University of Dundee, Small-Polar-MMV Screening Library” (2021)).